# The list shows a part of the results. Small differences around the control level are noise.
# The chains behind the UniProt entries cited, without tags or fusion partners. Where a name states a change or a piece, a line headed by the entry shows the natural chain unless it says otherwise.
# UniProt Q8VBT6: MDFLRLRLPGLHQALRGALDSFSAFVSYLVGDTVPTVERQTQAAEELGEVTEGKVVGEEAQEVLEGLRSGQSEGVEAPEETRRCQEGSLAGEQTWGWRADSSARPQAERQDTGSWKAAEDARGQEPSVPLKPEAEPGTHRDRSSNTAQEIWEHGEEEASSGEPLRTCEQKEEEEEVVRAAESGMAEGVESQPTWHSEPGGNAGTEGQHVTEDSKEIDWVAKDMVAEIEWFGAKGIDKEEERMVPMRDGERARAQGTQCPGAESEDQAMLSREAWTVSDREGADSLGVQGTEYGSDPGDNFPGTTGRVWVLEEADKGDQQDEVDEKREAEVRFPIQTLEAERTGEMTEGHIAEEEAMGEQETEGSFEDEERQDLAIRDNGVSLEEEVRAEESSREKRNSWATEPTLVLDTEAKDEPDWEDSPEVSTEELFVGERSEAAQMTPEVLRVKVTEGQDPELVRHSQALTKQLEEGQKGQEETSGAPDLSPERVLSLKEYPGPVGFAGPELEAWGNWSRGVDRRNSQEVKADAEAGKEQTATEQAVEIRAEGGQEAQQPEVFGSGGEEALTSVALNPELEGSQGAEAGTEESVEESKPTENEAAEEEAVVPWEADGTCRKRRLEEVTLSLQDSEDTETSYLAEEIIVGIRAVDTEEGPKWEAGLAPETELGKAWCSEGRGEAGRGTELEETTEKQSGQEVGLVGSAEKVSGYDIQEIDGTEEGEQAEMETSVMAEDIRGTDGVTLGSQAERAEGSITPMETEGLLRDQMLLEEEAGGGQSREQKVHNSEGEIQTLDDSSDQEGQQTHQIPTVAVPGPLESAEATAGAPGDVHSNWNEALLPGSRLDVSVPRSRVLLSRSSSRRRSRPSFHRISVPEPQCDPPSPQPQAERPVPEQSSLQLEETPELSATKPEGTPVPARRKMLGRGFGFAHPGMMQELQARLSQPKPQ
# UniProt Q8R5J9: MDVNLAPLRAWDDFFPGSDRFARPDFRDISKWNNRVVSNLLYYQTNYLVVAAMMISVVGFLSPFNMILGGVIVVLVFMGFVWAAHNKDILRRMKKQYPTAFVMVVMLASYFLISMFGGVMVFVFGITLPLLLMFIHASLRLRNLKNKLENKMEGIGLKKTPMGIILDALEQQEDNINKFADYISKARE
# UniProt Q8K0Y7: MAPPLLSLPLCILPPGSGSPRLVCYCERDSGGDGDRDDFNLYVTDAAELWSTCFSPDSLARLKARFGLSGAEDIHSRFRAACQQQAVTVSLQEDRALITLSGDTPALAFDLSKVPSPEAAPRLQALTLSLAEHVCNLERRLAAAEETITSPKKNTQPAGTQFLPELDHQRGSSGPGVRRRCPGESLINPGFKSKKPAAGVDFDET
# UniProt Q8K4Z5: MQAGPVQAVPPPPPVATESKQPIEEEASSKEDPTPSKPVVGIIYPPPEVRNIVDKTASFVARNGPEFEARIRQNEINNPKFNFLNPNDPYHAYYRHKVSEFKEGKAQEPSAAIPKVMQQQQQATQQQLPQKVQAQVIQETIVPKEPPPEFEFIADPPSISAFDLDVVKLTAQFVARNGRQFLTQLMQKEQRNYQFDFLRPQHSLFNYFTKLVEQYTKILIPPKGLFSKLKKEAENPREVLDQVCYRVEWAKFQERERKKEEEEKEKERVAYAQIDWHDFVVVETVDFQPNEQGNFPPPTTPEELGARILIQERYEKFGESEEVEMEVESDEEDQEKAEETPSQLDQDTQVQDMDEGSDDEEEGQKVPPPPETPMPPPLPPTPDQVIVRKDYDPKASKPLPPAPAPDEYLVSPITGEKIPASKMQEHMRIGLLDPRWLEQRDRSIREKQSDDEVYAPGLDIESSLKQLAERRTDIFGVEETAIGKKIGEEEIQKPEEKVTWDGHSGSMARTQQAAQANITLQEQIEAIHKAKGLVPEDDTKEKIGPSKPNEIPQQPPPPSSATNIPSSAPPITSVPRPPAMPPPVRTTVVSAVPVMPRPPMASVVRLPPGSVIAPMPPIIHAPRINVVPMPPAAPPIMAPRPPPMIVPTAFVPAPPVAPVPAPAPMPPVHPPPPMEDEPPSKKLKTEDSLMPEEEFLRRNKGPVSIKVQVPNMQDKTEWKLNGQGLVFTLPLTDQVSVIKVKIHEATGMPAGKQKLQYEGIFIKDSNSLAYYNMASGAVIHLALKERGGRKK
# UniProt Q8CIZ8, whole entry: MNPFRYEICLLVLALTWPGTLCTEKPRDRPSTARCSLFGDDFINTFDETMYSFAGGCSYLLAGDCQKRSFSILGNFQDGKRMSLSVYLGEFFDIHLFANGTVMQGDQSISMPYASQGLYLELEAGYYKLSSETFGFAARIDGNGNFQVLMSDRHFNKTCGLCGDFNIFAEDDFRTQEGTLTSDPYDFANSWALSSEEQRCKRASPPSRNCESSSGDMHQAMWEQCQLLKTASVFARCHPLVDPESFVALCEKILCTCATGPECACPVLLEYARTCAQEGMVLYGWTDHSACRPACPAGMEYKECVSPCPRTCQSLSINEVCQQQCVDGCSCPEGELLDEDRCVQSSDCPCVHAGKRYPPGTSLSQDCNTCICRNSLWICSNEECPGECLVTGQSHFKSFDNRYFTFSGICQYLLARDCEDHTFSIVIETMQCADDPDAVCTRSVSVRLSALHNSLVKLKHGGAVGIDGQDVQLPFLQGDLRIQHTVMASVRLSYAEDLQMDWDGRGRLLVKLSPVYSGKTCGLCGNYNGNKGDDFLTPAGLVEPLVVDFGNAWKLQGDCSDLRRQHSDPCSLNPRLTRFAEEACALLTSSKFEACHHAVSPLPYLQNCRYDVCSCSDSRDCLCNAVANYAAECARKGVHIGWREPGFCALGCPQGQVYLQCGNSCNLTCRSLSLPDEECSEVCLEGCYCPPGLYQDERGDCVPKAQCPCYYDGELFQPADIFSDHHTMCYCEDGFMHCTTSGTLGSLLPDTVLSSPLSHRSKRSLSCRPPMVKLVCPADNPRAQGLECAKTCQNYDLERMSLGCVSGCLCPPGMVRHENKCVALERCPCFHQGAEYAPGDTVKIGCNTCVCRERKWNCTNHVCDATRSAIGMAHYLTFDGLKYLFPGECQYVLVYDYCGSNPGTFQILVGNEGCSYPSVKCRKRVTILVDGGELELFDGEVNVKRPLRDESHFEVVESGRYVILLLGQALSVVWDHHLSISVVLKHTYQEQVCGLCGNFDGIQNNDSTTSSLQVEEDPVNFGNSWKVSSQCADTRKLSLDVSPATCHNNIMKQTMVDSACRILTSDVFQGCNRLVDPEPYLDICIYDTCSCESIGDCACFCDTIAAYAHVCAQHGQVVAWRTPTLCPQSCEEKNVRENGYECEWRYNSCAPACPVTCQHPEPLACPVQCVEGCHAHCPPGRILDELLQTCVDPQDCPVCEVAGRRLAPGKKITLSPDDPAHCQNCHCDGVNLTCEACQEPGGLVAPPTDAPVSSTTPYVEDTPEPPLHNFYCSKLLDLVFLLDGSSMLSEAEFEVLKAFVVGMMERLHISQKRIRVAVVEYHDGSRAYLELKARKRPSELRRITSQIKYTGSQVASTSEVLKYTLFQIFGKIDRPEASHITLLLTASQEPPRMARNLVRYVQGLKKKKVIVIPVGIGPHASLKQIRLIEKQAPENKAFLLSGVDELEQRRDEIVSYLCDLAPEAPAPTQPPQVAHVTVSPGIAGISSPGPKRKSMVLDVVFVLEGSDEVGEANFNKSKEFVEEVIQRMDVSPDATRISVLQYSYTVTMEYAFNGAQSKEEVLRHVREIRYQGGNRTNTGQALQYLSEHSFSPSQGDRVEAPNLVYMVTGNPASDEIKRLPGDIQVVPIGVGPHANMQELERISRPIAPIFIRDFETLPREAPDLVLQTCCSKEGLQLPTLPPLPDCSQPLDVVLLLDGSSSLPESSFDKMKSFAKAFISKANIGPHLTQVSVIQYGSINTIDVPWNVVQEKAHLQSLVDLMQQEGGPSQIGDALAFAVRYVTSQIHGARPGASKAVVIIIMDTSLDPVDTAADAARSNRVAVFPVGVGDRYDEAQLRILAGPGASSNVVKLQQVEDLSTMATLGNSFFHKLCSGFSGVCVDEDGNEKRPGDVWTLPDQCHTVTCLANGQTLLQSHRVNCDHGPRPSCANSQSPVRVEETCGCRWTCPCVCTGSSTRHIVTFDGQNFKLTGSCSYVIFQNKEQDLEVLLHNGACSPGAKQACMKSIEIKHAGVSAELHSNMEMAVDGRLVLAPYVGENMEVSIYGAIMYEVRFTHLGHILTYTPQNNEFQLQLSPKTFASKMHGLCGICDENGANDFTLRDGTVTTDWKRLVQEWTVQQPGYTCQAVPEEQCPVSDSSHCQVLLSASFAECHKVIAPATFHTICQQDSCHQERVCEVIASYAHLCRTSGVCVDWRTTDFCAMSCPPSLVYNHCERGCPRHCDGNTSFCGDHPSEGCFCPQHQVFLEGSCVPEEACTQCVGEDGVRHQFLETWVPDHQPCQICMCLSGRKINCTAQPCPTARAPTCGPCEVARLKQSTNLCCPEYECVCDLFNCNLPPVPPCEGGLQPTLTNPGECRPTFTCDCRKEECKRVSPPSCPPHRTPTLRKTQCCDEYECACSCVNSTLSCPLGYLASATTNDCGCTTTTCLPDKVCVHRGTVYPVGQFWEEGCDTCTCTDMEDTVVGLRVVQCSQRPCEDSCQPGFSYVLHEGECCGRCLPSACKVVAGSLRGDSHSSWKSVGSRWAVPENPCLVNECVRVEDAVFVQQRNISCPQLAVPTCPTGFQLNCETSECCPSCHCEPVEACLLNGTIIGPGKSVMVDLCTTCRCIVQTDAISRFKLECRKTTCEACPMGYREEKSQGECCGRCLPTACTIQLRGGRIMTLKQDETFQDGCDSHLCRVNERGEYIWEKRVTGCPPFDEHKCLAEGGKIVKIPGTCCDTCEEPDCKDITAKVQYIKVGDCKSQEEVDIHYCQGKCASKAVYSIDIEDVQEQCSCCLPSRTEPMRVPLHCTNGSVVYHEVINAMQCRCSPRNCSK
# UniProt Q8R5C5, whole entry: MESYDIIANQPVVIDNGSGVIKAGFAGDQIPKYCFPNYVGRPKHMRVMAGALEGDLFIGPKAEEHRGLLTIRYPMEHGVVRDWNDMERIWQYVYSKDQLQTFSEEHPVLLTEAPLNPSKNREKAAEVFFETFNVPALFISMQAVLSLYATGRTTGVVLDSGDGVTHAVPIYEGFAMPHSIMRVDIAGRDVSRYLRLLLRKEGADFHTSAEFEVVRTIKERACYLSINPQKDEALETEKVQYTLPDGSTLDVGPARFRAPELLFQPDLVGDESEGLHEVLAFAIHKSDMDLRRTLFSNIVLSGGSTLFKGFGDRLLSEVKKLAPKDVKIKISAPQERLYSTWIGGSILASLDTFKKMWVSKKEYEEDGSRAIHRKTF
# UniProt Q8QZY2: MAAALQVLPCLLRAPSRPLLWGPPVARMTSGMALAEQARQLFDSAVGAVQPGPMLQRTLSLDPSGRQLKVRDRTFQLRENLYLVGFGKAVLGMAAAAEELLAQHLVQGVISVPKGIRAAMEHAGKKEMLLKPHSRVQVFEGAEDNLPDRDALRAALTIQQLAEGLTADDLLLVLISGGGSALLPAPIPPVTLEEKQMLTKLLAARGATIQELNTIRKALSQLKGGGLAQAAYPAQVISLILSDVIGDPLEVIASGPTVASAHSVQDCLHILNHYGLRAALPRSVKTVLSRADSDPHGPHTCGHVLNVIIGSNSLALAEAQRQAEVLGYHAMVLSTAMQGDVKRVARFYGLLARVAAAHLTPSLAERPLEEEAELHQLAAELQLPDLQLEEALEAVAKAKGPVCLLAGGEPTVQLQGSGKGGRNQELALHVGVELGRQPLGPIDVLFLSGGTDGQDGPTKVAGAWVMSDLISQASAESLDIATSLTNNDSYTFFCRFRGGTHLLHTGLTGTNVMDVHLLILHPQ
# UniProt Q8CHW4: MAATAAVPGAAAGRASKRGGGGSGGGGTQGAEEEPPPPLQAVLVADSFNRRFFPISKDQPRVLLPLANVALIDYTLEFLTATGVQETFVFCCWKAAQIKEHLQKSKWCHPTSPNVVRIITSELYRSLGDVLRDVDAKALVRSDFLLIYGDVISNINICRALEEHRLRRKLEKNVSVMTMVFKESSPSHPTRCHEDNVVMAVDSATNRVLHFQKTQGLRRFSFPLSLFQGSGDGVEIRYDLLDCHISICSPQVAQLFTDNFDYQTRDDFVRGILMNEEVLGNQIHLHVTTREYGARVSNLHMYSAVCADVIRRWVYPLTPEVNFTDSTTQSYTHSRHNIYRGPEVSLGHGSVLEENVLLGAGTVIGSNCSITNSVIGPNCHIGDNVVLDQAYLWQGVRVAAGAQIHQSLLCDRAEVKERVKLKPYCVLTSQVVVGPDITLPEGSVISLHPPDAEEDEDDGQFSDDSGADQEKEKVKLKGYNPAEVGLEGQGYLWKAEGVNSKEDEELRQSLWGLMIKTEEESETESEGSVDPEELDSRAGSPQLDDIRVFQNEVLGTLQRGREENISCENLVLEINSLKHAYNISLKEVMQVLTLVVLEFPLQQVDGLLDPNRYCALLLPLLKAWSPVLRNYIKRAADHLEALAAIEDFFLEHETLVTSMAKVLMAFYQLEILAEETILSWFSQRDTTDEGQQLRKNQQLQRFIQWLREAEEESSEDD
# Compound: CN[C@@H]1C[C@H]2O[C@@](C)([C@@H]1OC)n1c3ccccc3c3c4c(c5c6ccccc6n2c5c31)C(=O)NC4 [staurosporine]
# Experiment: log2 fold change of pooled soluble protein (PISA), ligand vs vehicle (log2 ratio); higher = more thermally stabilized
# Conditions: ligand concentration: 20 uM; assay format: PISA pool 52.9/55.5/58.6 C
row,Target,log2 fold change of pooled soluble protein
1,UniProt Q8CI61,0.155
2,UniProt Q8VBT6,-0.253
3,UniProt Q8CH02,0.103
4,UniProt Q8CIE6,-0.00198
5,UniProt Q8R5J9,-0.134
6,UniProt Q8N7N5,0.0161
7,UniProt Q8R1Q8,0.0452
8,UniProt Q8R1N0,-0.149
9,UniProt Q8K0U4,-0.37
10,UniProt Q8K1R3,-0.0289
11,UniProt Q8K0V4,0.124
12,UniProt Q8K0Y7,-0.00222
13,UniProt Q8K4Z5,0.399
14,UniProt Q8JZN7,0.134
15,UniProt Q8CIZ8,0.00083
16,UniProt Q8K2I4,0.0165
17,UniProt Q8R143,-0.13
18,UniProt Q8K4G1,-0.0831
19,UniProt Q8K1H7,0.189

row,Target,log2 fold change of pooled soluble protein
1,UniProt Q8R1S9,0.0233
2,UniProt Q8K2K6,-0.0309
3,UniProt Q8K337,-0.589
4,UniProt Q8R1S4,0.00995
5,UniProt Q8K411,-0.011
6,UniProt Q8VCG4,0.163
7,UniProt Q8R164,0.063
8,UniProt Q8K1J5,-0.00258
9,UniProt Q8K2L8,-0.101
10,UniProt Q8R3D1,0.272
11,UniProt Q8R5C5,0.0909
12,UniProt Q8CGC7,0.0429
13,UniProt Q8QZY2,0.0385
14,UniProt Q8R081,-0.000463
15,UniProt Q8K1C0,0.0529
16,UniProt Q8R0X7,-0.0381
17,UniProt Q8CHW4,0.0495
18,UniProt Q8VC74,0.0743

# Two entries from above, as tab-separated lines.
row	Target	log2 fold change of pooled soluble protein
2	UniProt Q8VBT6	-0.253
8	UniProt Q8K1J5	-0.00258

# From the supplement of paper PMC12819154, “High-throughput peptide-centric local stability assay extends protein–ligand identification to membrane proteins, tissues and bacteria” (Nature Structural & Molecular Biology, 2025)
